Patent US20160326219A1, “OPTICALLY ACTIVATED RECEPTORS” (IST AUSTRIA (INSTITUTE OF SCIENCE AND TECHNOLOGY AUSTRIA), priority 2013, published 2016)
At least one compound was matched to its structure with a doubt left.

Assays:
[1] = system: M38K cells; test: All optical evaluation of pharmacological compounds / cell morphology, M38K cells stably expressing Opto-mFGFR1; format: cell-based, human; details: Opto-mFGFR1 activated by blue light ~3 μW/mm^2; PD 5 μM, BIBF 0.5 μM, PON 1 μM, SEL 0.5 μM, UO 10 μM, MK 10 μM, LY 20 μM; automated image analysis
Excerpt: M38K and SPC212, two malignant pleural mesothelioma cell lines, were maintained in RPMI1640 supplemented with 10% FBS. Telomerase-immortalized microvascular hBE cells were maintained in Clonetics EGM2 MV endothelial growth medium (Lonza, Wakersville, Md.) supplemented with 5% FBS. For retrovirus generation, Opto-mFGFR1 or mCherry as control was subcloned into pQCXIP (Clontech, Mountain View, Calif.) using EcoRI and NotI restriction enzymes. Viral particles were generated in HEK293 cells by co-transfection with the helper plasmids pVSV-G and p-gag-pol-gpt. Supernatants were used to transduce M38K, SPC212 or hBE cells grown to 50% confluency in 6-well plates. Cells were selected with 0.8 μg/ml puromycin for 10 d and transgene expression was verified by immunoblotting.
10^5 M38K cells were seeded in each well of 6-well plates. After 24 h, cells were stimulated for 1 h or kept in the dark. FGF2 (Sigma) or PD166866 (Pfizer Global Research and Development, New London, Conn.) were added as indicated. After additional 24 h, cells were photographed on the Nikon Ti300 microscope. For quantification of cell morphology, all cell perimeters in randomly selected sections of phase contrast images were traced and aspect ratios (defined as length of major axis divided by length of minor axis of a fitted ellipse) calculated with ImageJ software (National Institute of Health). Greater than 50 individual values contributed to each average.
For M38K cells, cell morphology was evaluated as described above but followed by automated image analysis. Phase contrast images (typically three images from two wells) were automatically analyzed. […] Cells were identified and measured in FIJI/ImageJ (Max Planck Society/National Institutes of Health; size limit: 40 to 600 pixel̂2, circularity limit: 0.01 to 1.00). […] For HEK293 cells, MAPK pathway activation was measured using luciferase as described above.

[2] = system: MAPK pathway; test: All optical evaluation of pharmacological compounds, luciferase signals of HEK293 cells expressing redOpto-rtrkB; format: cell-based, human; details: red light ~0.05 μW/mm^2, UO 10 μM, SEL 0.5 μM, PD 5 μM, IMA 0.5 μM, VEM 0.5 μM
Description: Phycocyanobilin (PCB; Livchem Logistics GmbH, Frankfurt a.M., Germany) was dissolved in a dark room to a stock concentration of 10 mM in DMSO. Aliquots were stored in the dark at −20° C. Prior to experiments, cells were incubated with 50 μM PCB overnight in reduced serum starve medium at 37° C. PCB could also be applied to applied to living animals as it is non-toxic even in high doses (0.17% of diet or 10 mg/kg) (McCarty (2007).
Activation of the MAPK pathway was assayed with the PathDetect Elk1 trans-Reporting System (Agilent) consisting of an Elk1 phosphorylation-dependent trans-activator and a luciferase-based trans-reporter. […] After incubation, plates were washed once with PBS and luciferase was detected with standard, off-the-shelf reagents. These were either Luciferase 1000 Assay System (Promega, Mannheim, Germany) in combination with a microplate reader equipped with an injector (Tecan Infinite 200 Pro, Maennedorf, Switzerland), or ONE-Glo Assay System (Promega) in combination with a microplate reader not equipped with an injector (BioTek Synergy H1). […]
For M38K cells, cell morphology was evaluated as described above but followed by automated image analysis. Phase contrast images (typically three images from two wells) were automatically analyzed. […] For HEK293 cells, MAPK pathway activation was measured using luciferase as described above.

Compound | Abrogation of light-induced morphology changes of M38K cells [1] | Abrogation of MAPK pathway induction in response to red light [2]
COC(=O)c1ccc2c(c1)NC(=O)/C2=C(\Nc1ccc(N(C)C(=O)CN2CCN(C)CC2)cc1)c1ccccc1 [BIBF1120] | abrogated | 
O=c1cc(N2CCOCC2)oc2c(-c3ccccc3)cccc12 [LY294002] | not effective | 
Cn1cnc2c(F)c(Nc3ccc(Br)cc3Cl)c(C(=O)NOCCO)cc21 [Selumetinib] | abrogated | abrogated
CCCS(=O)(=O)Nc1ccc(F)c(C(=O)c2c[nH]c3ncc(-c4ccc(Cl)cc4)cc23)c1F [Vemurafenib] |  | not effective
